In paper PMC9910802:

Target: T1, Verticillium transcription activator of adhesion 3 (Vta3) fused to GFP (Verticillium dahliae) (UniProt G2WUC4)
T1 sequence: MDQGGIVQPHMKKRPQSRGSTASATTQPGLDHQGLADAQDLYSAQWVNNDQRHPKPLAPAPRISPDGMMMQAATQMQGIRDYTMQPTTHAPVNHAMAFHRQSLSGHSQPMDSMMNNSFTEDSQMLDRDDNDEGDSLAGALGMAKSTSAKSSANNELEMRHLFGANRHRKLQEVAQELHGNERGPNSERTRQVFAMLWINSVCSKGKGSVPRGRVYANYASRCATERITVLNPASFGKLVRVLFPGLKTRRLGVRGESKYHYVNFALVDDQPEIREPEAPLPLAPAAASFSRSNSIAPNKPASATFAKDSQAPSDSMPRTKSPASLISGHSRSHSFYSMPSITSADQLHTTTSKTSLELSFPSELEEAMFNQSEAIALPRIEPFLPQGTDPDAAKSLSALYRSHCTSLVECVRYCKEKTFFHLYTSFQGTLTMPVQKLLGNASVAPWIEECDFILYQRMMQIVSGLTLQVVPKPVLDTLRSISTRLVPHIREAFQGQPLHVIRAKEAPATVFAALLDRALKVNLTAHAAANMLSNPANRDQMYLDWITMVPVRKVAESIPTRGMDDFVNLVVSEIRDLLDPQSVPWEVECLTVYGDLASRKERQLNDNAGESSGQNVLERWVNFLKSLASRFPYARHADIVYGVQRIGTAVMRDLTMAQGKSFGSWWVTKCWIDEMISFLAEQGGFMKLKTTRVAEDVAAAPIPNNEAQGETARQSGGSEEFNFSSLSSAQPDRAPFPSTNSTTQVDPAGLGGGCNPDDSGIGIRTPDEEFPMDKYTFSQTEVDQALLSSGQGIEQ
Assay: affinity purification with mass spectrometry; GFP-Trap Agarose beads (15 ul) on protein extracts of the VTA3-GFP expressing strain grown five days in liquid PDM at 25°C; controls: wild-type and wild-type overexpressing GFP; LC/MS, enrichment of Vta3-GFP versus wild-type

B1: Master transcription factor 1 (Mtf1) (protein, UniProt G2WVT2 1-321)
chain: MHHYISNTQGATTTQYAYVPQPPPSPPMDESTKCSLPSISNLLGLADQGSPTSETHPQNQQVLKGEAVSAKPETRPSSSHYGGSHSQTRANFPPTPPMSTDASFDGYNSPSTRSVSQMSAVSAPHPHNYYYETTPPLEDVHHQHQRAMSHTPAARLPIHQTTPYPPPASSHYPSASAAASSYLPPHHQQPQHHHSVGPVPFYPPPQAQITSLYYQRPLPAAFPPSVAPPTMLGGPNPWQHHHYISPSAAASFPQSQDRYVCPTCNKAFSRPSSLRIHSHSHTGEKPFKCPHGGCGKAFSVRSNMKRHERGCHSFDGAAPVS
With B1 the binding was “no binding”.

Results are given in words; binding and its absence hold for the method and conditions named. In cells and extracts the contact can be indirect. Here binding means that the protein was enriched with, or labelled near, the bait; the list need not be complete. No binding means not detected with the bait. Tags and fused reporters may be left off the sequences shown.
